{"source": "the supplement of paper PMC12823440", "about": "“Inhibitors supercharge kinase turnover through native proteolytic circuits” (Nature, 2025)", "note": "Structures can show the parent of a compound that is named as a salt. The list shows a part of the results. Hit calls seldom repeat between salt and free forms of one compound.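 In K562 cells expressing nanoluciferase-fused kinases, luminescence was recorded at 4 h intervals between 2 and 18 h, normalized as percent of control with DMSO at 100% and a positive control at 0%. A significant (2 sigma) signal drop marks a time point as decreased. The authors' rule for a hit is not shown and takes in more than the number of time points.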", "data": [{"molecular_target": "PRKCA (UniProt P17252)", "test": "kinase-Nluc reporter destabilization hit call (1 = scored as downregulated) (binary); higher = compound decreases kinase abundance", "details": "K562; 2-18 h", "values": [{"smiles": "C=CC(=O)N1CCC[C@@H](n2c(=O)n(-c3ccc(Oc4ccccc4)cc3)c3c(N)nccc32)C1", "note": "[Tolebrutinib] (10 µM)", "kinase-Nluc reporter destabilization hit call": "inactive: 0"}, {"smiles": "C[C@]1(O)C[C@@](N)(c2ccc(-c3nc4n(c3-c3ccccc3)COc3ccncc3-4)cc2)C1", "note": "[TAS-117 (hydrochloride)] (10 µM)", "kinase-Nluc reporter destabilization hit call": "inactive: 0"}, {"smiles": "CCOC(=O)C1=C[C@]2(CC)CCCN3CCc4c(n1c1ccccc41)[C@@H]32", "note": "[Vinpocetine] (10 µM)", "kinase-Nluc reporter destabilization hit call": "inactive: 0"}, {"smiles": "CC(C)(C)NS(=O)(=O)c1cncc(-c2cc(F)c3nc(N)nn3c2)c1", "note": "(10 µM)", "kinase-Nluc reporter destabilization hit call": "inactive: 0"}, {"smiles": "CC(C)(C)c1ccc(C(=O)Nc2cn3cc(-n4ccnc4)ccc3n2)cc1", "note": "(10 µM)", "kinase-Nluc reporter destabilization hit call": "inactive: 0"}, {"smiles": "Cc1nc(NC(=O)N2CCC[C@H]2C(N)=O)sc1-c1csc(C(C)(C)C)n1", "note": "(10 µM)", "kinase-Nluc reporter destabilization hit call": "inactive: 0"}, {"smiles": "N#Cc1cn([C@@H]2O[C@H](CO)[C@@H](O)[C@H]2O)c2nc[nH]c(=O)c12", "note": "[Jaspamycin] (10 µM)", "kinase-Nluc reporter destabilization hit call": "inactive: 0"}, {"smiles": "Cc1ccc(-c2csc(Cn3nc(CC4OCCCO4)c4ccccc4c3=O)n2)cc1", "note": "(10 µM)", "kinase-Nluc reporter destabilization hit call": "inactive: 0"}, {"smiles": "CNC(=O)c1c(C)oc2cc(Oc3ncnc4cc(OC)c(OC)cc34)ccc12", "note": "[Fruquintinib] (10 µM)", "kinase-Nluc reporter destabilization hit call": "inactive: 0"}, {"smiles": "O=S(=O)(N=Cc1c(O)ccc2ccccc12)c1cccs1", "note": "(10 µM)", "kinase-Nluc reporter destabilization hit call": "inactive: 0"}, {"smiles": "NC(=O)c1cccc2c(N[C@H](CN3CCC3)c3ccc(Cl)c(C(F)(F)F)c3)ncnc12", "note": "(10 µM)", "kinase-Nluc reporter destabilization hit call": "inactive: 0"}, {"smiles": "CN1CCC(c2ccccc2CC(C)(C)Nc2nc(N3CCOCC3)nc(-n3c(S(C)(=O)=O)nc4ccccc43)n2)CC1", "note": "(10 µM)", "kinase-Nluc reporter destabilization hit call": "inactive: 0"}, {"smiles": "O=c1ccc2cc(O)c(O)cc2o1", "note": "[Esculetin] (10 µM)", "kinase-Nluc reporter destabilization hit call": "inactive: 0"}, {"smiles": "O=C(Nc1nc2cccc(-c3ccc(CN4CCS(=O)(=O)CC4)cc3)n2n1)C1CC1", "note": "[Filgotinib] (2.5 µM)", "kinase-Nluc reporter destabilization hit call": "inactive: 0"}, {"smiles": "CC(C)(O)c1cc2nc(-c3cnc(N)nc3)nc(N3CCOCC3)c2s1", "note": "(2.5 µM)", "kinase-Nluc reporter destabilization hit call": "inactive: 0"}, {"smiles": "Cn1cc(-c2ccc3ncc(Cc4ccc5ncccc5c4)n3n2)cn1", "note": "(10 µM)", "kinase-Nluc reporter destabilization hit call": "inactive: 0"}, {"smiles": "CC(=O)c1cc(O)ccc1O", "note": "[2,5-Dihydroxyacetophenone] (10 µM)", "kinase-Nluc reporter destabilization hit call": "inactive: 0"}, {"smiles": "COc1ccc(COc2cc3oc(=O)c4cc(C(C)O)ccc4c3cc2OC)cc1", "note": "(stereo not drawn) [Palomid 529] (2.5 µM)", "kinase-Nluc reporter destabilization hit call": "inactive: 0"}, {"smiles": "O=C(CC(c1ccccc1)C(C(=O)O)C(=O)O)c1ccc(C(F)(F)F)cc1", "note": "(stereo not drawn) (10 µM)", "kinase-Nluc reporter destabilization hit call": "inactive: 0"}, {"smiles": "CC(C)[C@H](CO)Nc1nc(Nc2ccc(C(=O)O)c(Cl)c2)c2ncn(C(C)C)c2n1", "note": "[Purvalanol B] (10 µM)", "kinase-Nluc reporter destabilization hit call": "inactive: 0"}, {"smiles": "COc1cc2nccc(Oc3ccc(NC(=O)Nc4ccc(F)cc4F)c(F)c3)c2cc1OC", "note": "(10 µM)", "kinase-Nluc reporter destabilization hit call": "inactive: 0"}, {"smiles": "N#C/C(=C\\c1ccc[nH]1)c1ccc(Cl)c(Cl)c1", "note": "(2.5 µM)", "kinase-Nluc reporter destabilization hit call": "inactive: 0"}, {"smiles": "O=c1cc(-c2ccc(O)cc2)oc2cc(O)c(O)c(O)c12", "note": "[Scutellarein] (10 µM)", "kinase-Nluc reporter destabilization hit call": "inactive: 0"}, {"smiles": "CC(C)n1nc(C#Cc2ccccc2)c2c(N)ncnc21", "note": "(10 µM)", "kinase-Nluc reporter destabilization hit call": "inactive: 0"}, {"smiles": "O=C(N=c1sccn1Cc1ccccc1)c1c[nH]c2ncccc12", "note": "(10 µM)", "kinase-Nluc reporter destabilization hit call": "inactive: 0"}, {"smiles": "CC(C)=C/C=C1\\O[C@@H]2CC(C)=CC(=O)[C@@H]2[C@]1(C)O", "note": "[Bisabolangelone] (10 µM)", "kinase-Nluc reporter destabilization hit call": "inactive: 0"}, {"smiles": "COc1ccc(C2CC(c3ccc(Cl)cc3)=NN2c2nc(-c3ccncc3)cs2)cc1", "note": "(stereo not drawn) [mTOR inhibitor-8] (10 µM)", "kinase-Nluc reporter destabilization hit call": "inactive: 0"}, {"smiles": "Cc1cc(F)c(Nc2ncnc3cc(OCc4ccccc4)ccc23)cc1O", "note": "(10 µM)", "kinase-Nluc reporter destabilization hit call": "inactive: 0"}, {"smiles": "CNCCOc1ccccc1C(C)(C)Nc1nccn(-c2cc(C(=O)NC3CC3)ccc2C)c1=O", "note": "[p38α inhibitor 2] (10 µM)", "kinase-Nluc reporter destabilization hit call": "inactive: 0"}, {"smiles": "CCn1c(-c2nonc2N)nc2c(C#CCO)ncc(OCCCN)c21", "note": "[AKT Kinase Inhibitor] (10 µM)", "kinase-Nluc reporter destabilization hit call": "inactive: 0"}, {"smiles": "NC(=O)c1nc(-c2c(F)cccc2Cl)oc1Nc1ccc(C(=O)N2CCOCC2)cc1", "note": "(10 µM)", "kinase-Nluc reporter destabilization hit call": "inactive: 0"}, {"smiles": "O=C(NCc1cccc(O)c1)c1cc2cc(F)ccc2[nH]1", "note": "(10 µM)", "kinase-Nluc reporter destabilization hit call": "inactive: 0"}, {"smiles": "Cc1nc(Nc2ncc(C(=O)Nc3c(C)cccc3Cl)s2)cc(N2CCN(C(=O)CCCCCCC(=O)N[C@H](C(=O)N3C[C@H](O)C[C@H]3C(=O)NCc3ccc(-c4scnc4C)cc3)C(C)(C)C)CC2)n1", "note": "(2.5 µM)", "kinase-Nluc reporter destabilization hit call": "inactive: 0"}]}]}
